Some of the results follow.

Protein sequences, listed by entry. Tags and fused reporters are not part of them. Lines headed by an entry give the natural chain unless they say otherwise; changes in a name come on top.
UniProt Q9BRX8: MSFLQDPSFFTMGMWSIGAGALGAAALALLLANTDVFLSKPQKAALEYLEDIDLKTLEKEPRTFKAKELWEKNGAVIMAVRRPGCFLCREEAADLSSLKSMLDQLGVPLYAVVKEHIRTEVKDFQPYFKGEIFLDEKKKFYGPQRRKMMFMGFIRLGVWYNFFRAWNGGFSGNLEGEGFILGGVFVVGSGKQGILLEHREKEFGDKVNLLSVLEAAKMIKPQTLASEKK
UniProt Q92932: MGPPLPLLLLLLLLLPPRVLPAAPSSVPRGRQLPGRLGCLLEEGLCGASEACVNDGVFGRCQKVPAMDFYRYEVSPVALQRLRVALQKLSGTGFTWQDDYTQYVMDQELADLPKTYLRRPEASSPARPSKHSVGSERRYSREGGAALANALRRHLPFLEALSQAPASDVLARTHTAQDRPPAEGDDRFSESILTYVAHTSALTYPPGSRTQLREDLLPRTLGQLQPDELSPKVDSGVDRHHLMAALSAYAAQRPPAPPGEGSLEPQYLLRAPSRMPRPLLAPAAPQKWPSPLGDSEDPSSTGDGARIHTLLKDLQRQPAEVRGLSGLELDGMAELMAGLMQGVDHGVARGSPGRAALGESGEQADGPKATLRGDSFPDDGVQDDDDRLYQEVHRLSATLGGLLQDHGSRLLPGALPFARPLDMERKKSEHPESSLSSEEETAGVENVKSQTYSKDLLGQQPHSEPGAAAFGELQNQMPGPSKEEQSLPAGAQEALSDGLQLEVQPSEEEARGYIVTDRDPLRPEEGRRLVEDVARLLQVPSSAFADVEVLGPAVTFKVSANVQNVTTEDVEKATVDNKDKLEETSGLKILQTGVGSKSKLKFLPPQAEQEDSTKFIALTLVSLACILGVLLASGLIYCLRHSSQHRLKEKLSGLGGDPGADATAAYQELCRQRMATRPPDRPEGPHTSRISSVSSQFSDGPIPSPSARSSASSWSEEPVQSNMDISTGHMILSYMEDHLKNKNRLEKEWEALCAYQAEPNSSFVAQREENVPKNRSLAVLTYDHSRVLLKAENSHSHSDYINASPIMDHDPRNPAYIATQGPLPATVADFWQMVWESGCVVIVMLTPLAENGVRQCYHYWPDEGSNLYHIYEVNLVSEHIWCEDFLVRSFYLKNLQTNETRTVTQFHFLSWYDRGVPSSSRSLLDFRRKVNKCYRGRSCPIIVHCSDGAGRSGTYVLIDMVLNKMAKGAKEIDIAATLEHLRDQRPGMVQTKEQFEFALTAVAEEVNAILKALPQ
UniProt Q9P2W1: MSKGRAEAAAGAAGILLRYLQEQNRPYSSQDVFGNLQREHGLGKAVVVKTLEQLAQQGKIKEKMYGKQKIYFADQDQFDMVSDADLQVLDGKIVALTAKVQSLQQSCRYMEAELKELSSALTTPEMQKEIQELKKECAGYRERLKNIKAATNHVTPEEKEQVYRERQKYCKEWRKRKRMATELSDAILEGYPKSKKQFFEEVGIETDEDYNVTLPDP
UniProt O14818: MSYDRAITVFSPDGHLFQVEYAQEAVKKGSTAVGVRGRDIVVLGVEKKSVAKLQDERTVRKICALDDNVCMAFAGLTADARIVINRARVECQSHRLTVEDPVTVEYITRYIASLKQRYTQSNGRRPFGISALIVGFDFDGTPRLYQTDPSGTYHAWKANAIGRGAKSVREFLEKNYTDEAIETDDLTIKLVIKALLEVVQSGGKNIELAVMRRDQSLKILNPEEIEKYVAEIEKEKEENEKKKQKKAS
UniProt P15151: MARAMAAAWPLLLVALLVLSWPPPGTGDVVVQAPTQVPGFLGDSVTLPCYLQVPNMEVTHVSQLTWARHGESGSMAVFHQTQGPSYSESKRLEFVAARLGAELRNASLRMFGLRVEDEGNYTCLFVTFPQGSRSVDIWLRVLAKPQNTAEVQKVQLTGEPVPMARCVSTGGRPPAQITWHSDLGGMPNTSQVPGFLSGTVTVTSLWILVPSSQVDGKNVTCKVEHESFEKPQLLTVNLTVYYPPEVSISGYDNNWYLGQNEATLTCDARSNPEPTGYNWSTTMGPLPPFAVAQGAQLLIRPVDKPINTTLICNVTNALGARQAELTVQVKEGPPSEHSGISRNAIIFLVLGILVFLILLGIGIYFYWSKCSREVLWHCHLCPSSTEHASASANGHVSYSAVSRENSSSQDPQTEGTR
UniProt Q96I23: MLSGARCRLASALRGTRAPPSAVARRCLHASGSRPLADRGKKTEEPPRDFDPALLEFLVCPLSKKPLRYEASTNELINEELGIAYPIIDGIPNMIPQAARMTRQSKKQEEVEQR
UniProt Q03393: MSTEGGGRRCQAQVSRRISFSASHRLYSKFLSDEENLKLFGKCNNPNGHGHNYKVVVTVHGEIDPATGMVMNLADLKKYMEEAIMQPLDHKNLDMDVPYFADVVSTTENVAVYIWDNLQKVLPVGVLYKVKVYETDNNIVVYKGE
UniProt Q8TB72: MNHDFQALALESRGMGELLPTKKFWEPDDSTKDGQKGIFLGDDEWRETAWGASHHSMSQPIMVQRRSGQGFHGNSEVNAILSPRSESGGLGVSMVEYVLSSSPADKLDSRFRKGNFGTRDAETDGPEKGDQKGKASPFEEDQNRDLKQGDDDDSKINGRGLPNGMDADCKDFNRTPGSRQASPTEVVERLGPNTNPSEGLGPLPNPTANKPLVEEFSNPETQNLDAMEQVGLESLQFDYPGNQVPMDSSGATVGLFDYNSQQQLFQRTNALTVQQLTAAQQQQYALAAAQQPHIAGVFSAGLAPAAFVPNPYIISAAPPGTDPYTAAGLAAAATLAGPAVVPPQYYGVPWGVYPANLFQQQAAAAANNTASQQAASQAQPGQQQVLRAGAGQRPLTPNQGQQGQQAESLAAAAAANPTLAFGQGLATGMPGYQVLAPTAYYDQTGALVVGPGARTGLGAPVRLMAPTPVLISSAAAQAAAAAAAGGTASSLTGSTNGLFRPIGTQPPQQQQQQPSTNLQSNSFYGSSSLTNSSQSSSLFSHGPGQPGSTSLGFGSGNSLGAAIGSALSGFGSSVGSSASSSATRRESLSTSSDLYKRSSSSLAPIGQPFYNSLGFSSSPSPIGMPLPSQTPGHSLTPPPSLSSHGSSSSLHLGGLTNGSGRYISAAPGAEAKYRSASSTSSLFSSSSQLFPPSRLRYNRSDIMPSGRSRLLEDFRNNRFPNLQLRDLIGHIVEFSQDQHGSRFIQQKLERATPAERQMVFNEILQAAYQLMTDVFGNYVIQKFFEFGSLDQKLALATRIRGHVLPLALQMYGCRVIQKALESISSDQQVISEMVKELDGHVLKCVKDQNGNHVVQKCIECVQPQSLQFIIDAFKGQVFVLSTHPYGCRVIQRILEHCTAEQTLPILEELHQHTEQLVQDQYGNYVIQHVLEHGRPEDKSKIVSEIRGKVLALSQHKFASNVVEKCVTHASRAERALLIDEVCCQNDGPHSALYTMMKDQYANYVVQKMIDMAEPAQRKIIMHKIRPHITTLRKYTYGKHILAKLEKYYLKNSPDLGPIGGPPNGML
UniProt P53801: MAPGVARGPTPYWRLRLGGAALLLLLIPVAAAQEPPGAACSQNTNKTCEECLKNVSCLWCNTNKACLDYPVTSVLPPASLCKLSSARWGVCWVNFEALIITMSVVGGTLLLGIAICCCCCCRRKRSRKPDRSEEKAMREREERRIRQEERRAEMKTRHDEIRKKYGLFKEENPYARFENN
UniProt Q9UHX1: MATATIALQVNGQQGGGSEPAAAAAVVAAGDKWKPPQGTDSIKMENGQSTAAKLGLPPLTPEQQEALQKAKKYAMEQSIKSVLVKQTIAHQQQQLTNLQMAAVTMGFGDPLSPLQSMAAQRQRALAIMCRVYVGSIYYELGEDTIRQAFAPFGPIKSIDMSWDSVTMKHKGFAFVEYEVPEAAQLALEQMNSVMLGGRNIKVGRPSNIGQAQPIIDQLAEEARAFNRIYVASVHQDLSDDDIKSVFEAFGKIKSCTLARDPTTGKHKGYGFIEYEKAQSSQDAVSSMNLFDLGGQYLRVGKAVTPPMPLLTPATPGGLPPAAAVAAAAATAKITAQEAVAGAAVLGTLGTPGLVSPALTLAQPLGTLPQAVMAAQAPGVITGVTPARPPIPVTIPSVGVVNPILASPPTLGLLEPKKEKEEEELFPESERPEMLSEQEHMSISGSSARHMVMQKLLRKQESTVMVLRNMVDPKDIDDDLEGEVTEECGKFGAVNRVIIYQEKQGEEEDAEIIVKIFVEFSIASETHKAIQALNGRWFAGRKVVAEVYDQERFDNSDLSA
UniProt Q86Y79: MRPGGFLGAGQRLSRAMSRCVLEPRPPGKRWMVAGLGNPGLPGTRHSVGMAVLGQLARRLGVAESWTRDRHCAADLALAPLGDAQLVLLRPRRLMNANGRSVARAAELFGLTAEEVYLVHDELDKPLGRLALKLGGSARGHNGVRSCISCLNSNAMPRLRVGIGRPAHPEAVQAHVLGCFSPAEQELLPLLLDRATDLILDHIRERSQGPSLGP
UniProt P28062: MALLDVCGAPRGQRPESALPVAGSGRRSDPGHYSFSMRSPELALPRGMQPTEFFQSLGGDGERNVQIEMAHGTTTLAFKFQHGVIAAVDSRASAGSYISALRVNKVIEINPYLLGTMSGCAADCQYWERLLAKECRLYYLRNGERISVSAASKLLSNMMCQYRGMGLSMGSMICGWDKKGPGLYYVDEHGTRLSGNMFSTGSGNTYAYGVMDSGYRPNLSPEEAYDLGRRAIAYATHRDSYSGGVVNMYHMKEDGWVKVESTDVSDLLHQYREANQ
UniProt P60484: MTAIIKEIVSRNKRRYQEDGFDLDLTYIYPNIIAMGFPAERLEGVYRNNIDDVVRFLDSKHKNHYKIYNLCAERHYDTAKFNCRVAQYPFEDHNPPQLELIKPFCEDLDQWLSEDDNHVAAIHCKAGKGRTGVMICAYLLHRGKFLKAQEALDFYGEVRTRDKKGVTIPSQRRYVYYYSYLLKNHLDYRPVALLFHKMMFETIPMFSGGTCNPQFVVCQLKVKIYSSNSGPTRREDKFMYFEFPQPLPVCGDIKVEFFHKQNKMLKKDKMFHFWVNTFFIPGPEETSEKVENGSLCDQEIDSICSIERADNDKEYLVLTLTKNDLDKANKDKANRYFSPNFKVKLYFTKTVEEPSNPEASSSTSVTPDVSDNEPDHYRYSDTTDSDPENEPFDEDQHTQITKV
UniProt Q7Z5L2: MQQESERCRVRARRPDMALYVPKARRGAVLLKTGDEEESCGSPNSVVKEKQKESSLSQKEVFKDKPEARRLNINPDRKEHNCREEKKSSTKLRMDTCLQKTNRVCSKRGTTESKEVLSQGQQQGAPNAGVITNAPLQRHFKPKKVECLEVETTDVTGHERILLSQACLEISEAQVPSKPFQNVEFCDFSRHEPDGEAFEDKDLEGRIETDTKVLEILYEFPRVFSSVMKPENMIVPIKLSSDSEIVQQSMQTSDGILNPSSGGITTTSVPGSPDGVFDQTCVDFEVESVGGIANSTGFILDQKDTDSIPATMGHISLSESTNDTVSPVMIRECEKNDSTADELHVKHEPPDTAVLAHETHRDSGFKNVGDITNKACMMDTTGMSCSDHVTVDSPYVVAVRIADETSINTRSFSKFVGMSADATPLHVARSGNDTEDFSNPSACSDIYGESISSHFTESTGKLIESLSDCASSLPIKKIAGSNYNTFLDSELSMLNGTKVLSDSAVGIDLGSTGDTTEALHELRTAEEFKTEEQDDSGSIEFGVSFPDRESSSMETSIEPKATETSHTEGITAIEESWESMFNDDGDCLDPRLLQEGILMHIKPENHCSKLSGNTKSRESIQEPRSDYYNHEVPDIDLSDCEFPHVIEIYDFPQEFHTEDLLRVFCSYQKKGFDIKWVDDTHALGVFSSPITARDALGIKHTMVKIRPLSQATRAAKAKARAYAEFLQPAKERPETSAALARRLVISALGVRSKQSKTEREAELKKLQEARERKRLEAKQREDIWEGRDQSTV
UniProt Q9UKA9: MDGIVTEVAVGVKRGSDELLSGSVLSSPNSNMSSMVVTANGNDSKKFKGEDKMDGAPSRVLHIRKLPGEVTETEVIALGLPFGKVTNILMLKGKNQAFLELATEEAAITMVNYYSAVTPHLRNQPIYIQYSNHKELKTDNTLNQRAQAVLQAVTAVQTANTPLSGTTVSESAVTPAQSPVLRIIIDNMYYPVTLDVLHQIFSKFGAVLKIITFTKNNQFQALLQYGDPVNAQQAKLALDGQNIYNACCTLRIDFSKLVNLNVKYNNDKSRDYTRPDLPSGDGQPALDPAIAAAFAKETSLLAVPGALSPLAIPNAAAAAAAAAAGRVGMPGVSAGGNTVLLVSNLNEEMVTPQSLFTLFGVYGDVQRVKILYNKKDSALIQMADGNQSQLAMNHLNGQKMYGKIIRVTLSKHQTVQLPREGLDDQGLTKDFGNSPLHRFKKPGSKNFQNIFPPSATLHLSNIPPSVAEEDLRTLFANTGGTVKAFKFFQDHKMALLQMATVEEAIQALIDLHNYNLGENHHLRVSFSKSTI

Compound in the first test: CN(CCOC1=CC=C(C=C1)C[C@H]2C(=O)NC(=O)S2)C3=CC=CC=N3 (racemic) [rosiglitazone]
The test can be described thus: log2 fold change, soluble protein after heating vs DMSO (PISA); higher = thermal stabilisation; K562 cells, 10 uM, 30 min; active = over 0.2 and 3.5 SD of the protein, either way, in both replicates (recomputed). An outline of the steps:
(§1)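 K562 cells (2×10^6 cells/mL) were treated with 10 μM compound for 30 min, and aliquots were heated for 3 min over 48°C-58°C. Pooled aliquots were extracted in PBS with 0.5% NP-40 at 4°C, and the supernatant after 21,000xg for 90 min was measured by TMTpro 16plex LC-MS/MS with channel sums equalised. Reported thermal stability, relative to control samples and from duplicates, is a log2 fold change.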
Take PRXL2A (UniProt Q9BRX8): the log2 fold change is inactive: 0.092.

Turning to PTPRN2 isoform 3 (UniProt Q92932), the log2 fold change was inactive: 0.074. Still for that read-out and setting: next, PYCR1 (UniProt J3QKT4): inactive: -0.166; PSMC3IP (UniProt Q9P2W1): inactive: 0.083; PSMD4 (UniProt Q5VWC4): inactive: -0.012. Same read-out and setting: next, PSMA7 isoform 2 (UniProt O14818): inactive: 0.002. The same measure, in the same setting: to PVR (UniProt P15151) belongs inactive: -0.016. With PYURF (UniProt Q96I23), the log2 fold change is inactive: 0. Turning to PTS (UniProt Q03393), the log2 fold change is inactive: -0.055.

Compound in the next test: CN1C2=C(C3=C1C(=O)N(N=C3)CC4=CC(=CC=C4)N)SC(=C2)S(=O)C
Described as above. An outline of the steps: as §1
For the target PUM2 isoform 3 (UniProt Q8TB72), the log2 fold change is inactive: 0.239. On to PSMC3 (UniProt E9PLG2), for which the log2 fold change was inactive: 0.046. The same measure, in the same setting: to PRXL2A (UniProt Q9BRX8) belongs inactive: 0.066; to PTPRN2 isoform 3 (UniProt Q92932), inactive: -0.311; to PTPN9 (UniProt P43378), inactive: 0.327. Consider PTTG1IP (UniProt P53801), for which the log2 fold change is inactive: 0.009. In the case of PUM1 (UniProt Q14671), the log2 fold change was inactive: 0.078.

Regarding PSIP1 (UniProt V9GYT7), the log2 fold change was inactive: 0.237. On the same count and under the same terms, next, PVR (UniProt P15151): inactive: -0.05. The same measure, in the same setting: next, PSMA3 (UniProt H0YJ03): inactive: 0.027; PRUNE2 isoform 3 (UniProt Q8WUY3): inactive: -0.114; PUF60 isoform 2 (UniProt Q9UHX1): inactive: -0.259. On the same count and under the same terms, to PYURF (UniProt Q96I23) belongs inactive: -0.011; to PTRH1 (UniProt Q86Y79), inactive: 0.124; to PTS (UniProt Q03393), inactive: 0.076.

Compound in another test: CN1CCC(CNc2ccc3ncc(-c4cccc(OC(F)(F)F)c4)n3n2)CC1
The description is as above. An outline of the steps: as §1
In the case of PSMB8 (UniProt P28062), the log2 fold change was inactive: 0.02. The same measure, in the same setting: to PRXL2A (UniProt Q9BRX8) belongs inactive: 0.261.

Turning to PYCR1 (UniProt J3QKT4), the log2 fold change is inactive: -0.089.

PSMC3IP (UniProt Q9P2W1): the log2 fold change was inactive: -0.025. PSMD4 (UniProt Q5VWC4): the log2 fold change is inactive: 0.127. On the same count and under the same terms, to PTEN isoform 2 (UniProt P60484) belongs inactive: -0.098. On the same count and under the same terms, next, PTPN9 (UniProt P43378): inactive: -0.029. On to PTTG1IP (UniProt P53801), for which the log2 fold change was active: -0.771. Turning to PSMB9 (UniProt P28065), the log2 fold change is inactive: 0.051. Same read-out and setting: next, R3HCC1L (UniProt Q7Z5L2): inactive: -0.175. Regarding PUM1 (UniProt Q14671), the log2 fold change was inactive: -0.026. On the same count and under the same terms, to PSIP1 (UniProt V9GYT7) belongs inactive: -0.06; to PVR (UniProt P15151), inactive: 0.049; to PTBP2 isoform 3 (UniProt Q9UKA9), inactive: 0.081. Still for that read-out and setting: to PSMC1 (UniProt G3V4X1) belongs inactive: -0.282; to PYURF (UniProt Q96I23), inactive: 0.184; to PTRH1 (UniProt Q86Y79), inactive: -0.181.

On to PTS (UniProt Q03393), for which the log2 fold change was inactive: -0.075.

Source of the values: the supplement of paper PMC10849652.
